Results are given in words; binding and its absence hold for the method and conditions named. In cells and extracts the contact can be indirect. Some entries that bind do so weakly or less than the wild type.
Tests used:
[1] = biological target: CSA-GFP (human) (UniProt Q13216); assay: co-IP; GFP-Trap beads on the GFP or mClover tag, 90 min at 4 °C; lysis in 30 mM HEPES pH 7.5, 130 mM NaCl, 1 mM MgCl2, 0.5% Triton X-100, sonication, Benzonase; immunoblot; cells mock-treated or UV irradiated, WT or DDA1KO
[2] = biological target: CSA-mClover (human (endogenous in HCT116)) (UniProt Q13216); assay: as above

Sequences of proteins named here, by UniProt entry; tags and fusion partners are left off.
UniProt Q13216: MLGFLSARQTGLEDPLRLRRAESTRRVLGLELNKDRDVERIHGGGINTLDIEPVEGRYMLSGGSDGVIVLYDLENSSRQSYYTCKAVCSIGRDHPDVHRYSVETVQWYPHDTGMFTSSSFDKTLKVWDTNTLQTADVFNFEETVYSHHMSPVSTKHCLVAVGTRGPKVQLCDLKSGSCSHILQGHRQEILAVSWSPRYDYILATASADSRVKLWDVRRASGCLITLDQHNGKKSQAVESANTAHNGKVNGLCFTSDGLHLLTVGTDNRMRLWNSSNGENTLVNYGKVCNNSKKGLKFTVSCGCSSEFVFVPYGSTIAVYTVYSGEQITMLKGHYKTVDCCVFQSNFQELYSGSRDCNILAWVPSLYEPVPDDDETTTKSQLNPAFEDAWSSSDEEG
UniProt Q92905: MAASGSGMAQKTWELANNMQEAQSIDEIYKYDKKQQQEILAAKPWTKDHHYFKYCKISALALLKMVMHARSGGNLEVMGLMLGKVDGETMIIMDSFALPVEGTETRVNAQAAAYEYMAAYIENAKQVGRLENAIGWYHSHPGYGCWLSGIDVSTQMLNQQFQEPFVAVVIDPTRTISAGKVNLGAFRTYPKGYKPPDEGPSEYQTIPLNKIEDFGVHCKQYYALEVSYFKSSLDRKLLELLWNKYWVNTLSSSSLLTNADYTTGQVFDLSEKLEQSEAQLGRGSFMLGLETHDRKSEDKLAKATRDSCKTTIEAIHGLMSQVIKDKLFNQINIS
UniProt Q13619: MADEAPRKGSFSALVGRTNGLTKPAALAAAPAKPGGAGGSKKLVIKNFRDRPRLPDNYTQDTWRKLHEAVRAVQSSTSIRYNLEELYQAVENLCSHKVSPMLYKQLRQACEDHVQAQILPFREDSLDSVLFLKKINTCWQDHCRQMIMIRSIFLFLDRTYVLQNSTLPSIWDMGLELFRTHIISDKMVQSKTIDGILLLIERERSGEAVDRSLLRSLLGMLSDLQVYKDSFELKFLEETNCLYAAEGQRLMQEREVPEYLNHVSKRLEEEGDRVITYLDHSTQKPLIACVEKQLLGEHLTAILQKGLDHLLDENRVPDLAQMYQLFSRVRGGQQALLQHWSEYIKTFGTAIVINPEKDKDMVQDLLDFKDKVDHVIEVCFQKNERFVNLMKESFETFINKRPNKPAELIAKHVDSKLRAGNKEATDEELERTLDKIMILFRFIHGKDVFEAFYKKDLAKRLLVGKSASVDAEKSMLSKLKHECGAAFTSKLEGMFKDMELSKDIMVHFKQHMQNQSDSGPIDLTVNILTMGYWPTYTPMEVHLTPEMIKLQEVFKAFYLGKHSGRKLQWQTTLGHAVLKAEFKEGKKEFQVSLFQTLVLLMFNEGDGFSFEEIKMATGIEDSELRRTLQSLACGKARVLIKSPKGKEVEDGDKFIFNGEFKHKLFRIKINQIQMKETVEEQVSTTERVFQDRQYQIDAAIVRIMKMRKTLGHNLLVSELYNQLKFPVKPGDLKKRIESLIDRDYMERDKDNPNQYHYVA

Row | Substance | binding [1] | binding [2]
1 | CSN5 (from UniProt Q92905 1-334) | binds | binds
2 | CUL4A (from UniProt Q13619 1-759) | binds | binds
